These are yes or no findings as the source states them, for the method shown. Binding seen in cells or lysates may run through a third protein. Some binding calls cover weakened binding; strength is not graded here.
T1: Neogenin-1 (human (endogenous in SK-N-SH)) (UniProt Q92859)
T1 sequence: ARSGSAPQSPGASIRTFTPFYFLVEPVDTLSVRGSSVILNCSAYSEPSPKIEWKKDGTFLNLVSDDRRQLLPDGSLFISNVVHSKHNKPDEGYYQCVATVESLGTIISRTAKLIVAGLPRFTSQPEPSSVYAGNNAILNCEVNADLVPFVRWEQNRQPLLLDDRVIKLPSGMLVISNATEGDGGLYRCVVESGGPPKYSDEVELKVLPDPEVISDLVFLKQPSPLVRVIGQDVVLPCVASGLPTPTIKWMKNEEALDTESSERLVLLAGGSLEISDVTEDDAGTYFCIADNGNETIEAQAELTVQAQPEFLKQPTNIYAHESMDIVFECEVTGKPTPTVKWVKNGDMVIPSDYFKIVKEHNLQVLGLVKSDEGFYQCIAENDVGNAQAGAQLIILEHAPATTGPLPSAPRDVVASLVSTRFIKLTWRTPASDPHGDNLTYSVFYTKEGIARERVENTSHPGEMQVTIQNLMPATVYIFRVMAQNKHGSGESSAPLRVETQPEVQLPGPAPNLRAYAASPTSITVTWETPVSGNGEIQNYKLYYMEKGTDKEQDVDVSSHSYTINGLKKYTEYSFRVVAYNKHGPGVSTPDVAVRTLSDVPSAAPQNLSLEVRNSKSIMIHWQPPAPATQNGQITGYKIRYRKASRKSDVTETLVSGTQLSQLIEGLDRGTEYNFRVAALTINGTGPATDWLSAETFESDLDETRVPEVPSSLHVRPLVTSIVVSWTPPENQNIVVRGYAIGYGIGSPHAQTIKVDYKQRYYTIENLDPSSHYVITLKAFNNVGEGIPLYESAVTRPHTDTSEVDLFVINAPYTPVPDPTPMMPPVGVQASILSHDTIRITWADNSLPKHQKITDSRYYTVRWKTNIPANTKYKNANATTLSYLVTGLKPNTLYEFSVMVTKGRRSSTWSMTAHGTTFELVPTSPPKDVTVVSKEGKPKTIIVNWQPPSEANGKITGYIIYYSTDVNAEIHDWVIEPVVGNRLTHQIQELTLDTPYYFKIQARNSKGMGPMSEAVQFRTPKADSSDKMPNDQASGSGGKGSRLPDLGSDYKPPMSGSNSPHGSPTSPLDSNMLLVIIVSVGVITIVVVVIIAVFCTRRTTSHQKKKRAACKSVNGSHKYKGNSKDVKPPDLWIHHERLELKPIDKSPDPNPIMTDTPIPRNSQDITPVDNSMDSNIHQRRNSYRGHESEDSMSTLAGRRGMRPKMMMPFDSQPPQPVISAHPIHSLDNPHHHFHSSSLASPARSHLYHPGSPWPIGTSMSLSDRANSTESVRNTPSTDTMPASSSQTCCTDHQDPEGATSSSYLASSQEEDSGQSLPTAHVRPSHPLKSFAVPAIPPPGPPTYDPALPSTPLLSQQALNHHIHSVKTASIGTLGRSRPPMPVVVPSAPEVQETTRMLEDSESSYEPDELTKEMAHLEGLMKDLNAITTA

Protein sequences, listed by entry. Tags and fused reporters are not part of them. Residues count along the entry.
UniProt P11047, residues 34-1609: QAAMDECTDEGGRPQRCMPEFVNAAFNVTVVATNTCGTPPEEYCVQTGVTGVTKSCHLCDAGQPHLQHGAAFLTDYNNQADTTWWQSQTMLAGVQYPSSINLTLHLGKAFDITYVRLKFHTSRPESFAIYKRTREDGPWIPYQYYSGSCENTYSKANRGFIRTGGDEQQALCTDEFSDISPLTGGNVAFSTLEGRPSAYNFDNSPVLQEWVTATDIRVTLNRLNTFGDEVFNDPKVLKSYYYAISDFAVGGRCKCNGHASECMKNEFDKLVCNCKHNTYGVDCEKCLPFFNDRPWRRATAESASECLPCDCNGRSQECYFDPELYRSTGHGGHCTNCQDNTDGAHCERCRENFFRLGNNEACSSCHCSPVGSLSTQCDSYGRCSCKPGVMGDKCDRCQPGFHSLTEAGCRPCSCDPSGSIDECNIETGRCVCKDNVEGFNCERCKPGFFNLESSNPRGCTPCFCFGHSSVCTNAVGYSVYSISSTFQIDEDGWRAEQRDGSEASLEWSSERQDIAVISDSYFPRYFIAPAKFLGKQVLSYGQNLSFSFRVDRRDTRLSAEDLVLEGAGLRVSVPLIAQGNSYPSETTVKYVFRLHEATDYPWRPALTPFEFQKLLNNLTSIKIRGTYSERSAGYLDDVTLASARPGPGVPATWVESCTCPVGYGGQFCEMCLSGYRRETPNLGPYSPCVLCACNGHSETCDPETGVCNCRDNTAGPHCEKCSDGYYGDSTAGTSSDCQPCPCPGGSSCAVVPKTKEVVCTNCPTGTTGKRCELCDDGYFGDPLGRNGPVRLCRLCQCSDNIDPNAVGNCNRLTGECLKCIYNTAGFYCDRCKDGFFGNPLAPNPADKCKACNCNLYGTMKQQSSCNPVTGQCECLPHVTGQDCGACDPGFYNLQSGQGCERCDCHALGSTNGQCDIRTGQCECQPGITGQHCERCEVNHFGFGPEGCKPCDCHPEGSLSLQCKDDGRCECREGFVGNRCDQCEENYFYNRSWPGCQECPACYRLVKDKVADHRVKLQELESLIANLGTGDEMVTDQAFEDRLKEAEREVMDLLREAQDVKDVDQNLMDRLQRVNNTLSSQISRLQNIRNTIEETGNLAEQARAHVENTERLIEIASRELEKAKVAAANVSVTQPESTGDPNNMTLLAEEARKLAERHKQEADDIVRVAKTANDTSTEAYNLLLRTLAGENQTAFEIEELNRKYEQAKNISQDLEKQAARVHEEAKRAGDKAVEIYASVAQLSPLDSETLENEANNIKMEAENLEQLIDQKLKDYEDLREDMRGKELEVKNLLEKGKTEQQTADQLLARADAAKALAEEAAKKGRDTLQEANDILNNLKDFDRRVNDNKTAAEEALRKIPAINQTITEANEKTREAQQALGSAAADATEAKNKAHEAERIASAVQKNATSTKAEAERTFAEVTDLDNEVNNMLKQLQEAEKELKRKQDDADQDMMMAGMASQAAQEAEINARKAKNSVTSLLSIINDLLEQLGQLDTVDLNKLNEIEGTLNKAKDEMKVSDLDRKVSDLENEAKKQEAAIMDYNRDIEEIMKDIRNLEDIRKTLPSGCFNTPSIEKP


Legend:
[1] = molecular target: T1, Neogenin-1 (human (endogenous in SK-N-SH)); test: co-IP; endogenous proteins in SK-N-SH cell extract (20 mM Tris pH 7.4, 150 mM NaCl, 1% NP-40, protease inhibitors; 1000 μg total protein); precipitated 1 h with anti-LMγ1 (MAB1920) or anti-NEO1 (H-175) on Dynabeads protein A; Western blot against NEO1 and LMγ1
[2] = molecular target: Laminin γ1 (human (endogenous in SK-N-SH)) (UniProt P11047); test: as above

binding [1]	binding [2]	Molecule
binds	–	Laminin γ1 (from UniProt P11047 34-1609)
–	binds	Neogenin-1 (receptor, UniProt Q92859 34-1461) ARSGSAPQSPGASIRTFTPFYFLVEPVDTLSVRGSSVILNCSAYSEPSPKIEWKKDGTFLNLVSDDRRQLLPDGSLFISNVVHSKHNKPDEGYYQCVATVESLGTIISRTAKLIVAGLPRFTSQPEPSSVYAGNNAILNCEVNADLVPFVRWEQNRQPLLLDDRVIKLPSGMLVISNATEGDGGLYRCVVESGGPPKYSDEVELKVLPDPEVISDLVFLKQPSPLVRVIGQDVVLPCVASGLPTPTIKWMKNEEALDTESSERLVLLAGGSLEISDVTEDDAGTYFCIADNGNETIEAQAELTVQAQPEFLKQPTNIYAHESMDIVFECEVTGKPTPTVKWVKNGDMVIPSDYFKIVKEHNLQVLGLVKSDEGFYQCIAENDVGNAQAGAQLIILEHAPATTGPLPSAPRDVVASLVSTRFIKLTWRTPASDPHGDNLTYSVFYTKEGIARERVENTSHPGEMQVTIQNLMPATVYIFRVMAQNKHGSGESSAPLRVETQPEVQLPGPAPNLRAYAASPTSITVTWETPVSGNGEIQNYKLYYMEKGTDKEQDVDVSSHSYTINGLKKYTEYSFRVVAYNKHGPGVSTPDVAVRTLSDVPSAAPQNLSLEVRNSKSIMIHWQPPAPATQNGQITGYKIRYRKASRKSDVTETLVSGTQLSQLIEGLDRGTEYNFRVAALTINGTGPATDWLSAETFESDLDETRVPEVPSSLHVRPLVTSIVVSWTPPENQNIVVRGYAIGYGIGSPHAQTIKVDYKQRYYTIENLDPSSHYVITLKAFNNVGEGIPLYESAVTRPHTDTSEVDLFVINAPYTPVPDPTPMMPPVGVQASILSHDTIRITWADNSLPKHQKITDSRYYTVRWKTNIPANTKYKNANATTLSYLVTGLKPNTLYEFSVMVTKGRRSSTWSMTAHGTTFELVPTSPPKDVTVVSKEGKPKTIIVNWQPPSEANGKITGYIIYYSTDVNAEIHDWVIEPVVGNRLTHQIQELTLDTPYYFKIQARNSKGMGPMSEAVQFRTPKADSSDKMPNDQASGSGGKGSRLPDLGSDYKPPMSGSNSPHGSPTSPLDSNMLLVIIVSVGVITIVVVVIIAVFCTRRTTSHQKKKRAACKSVNGSHKYKGNSKDVKPPDLWIHHERLELKPIDKSPDPNPIMTDTPIPRNSQDITPVDNSMDSNIHQRRNSYRGHESEDSMSTLAGRRGMRPKMMMPFDSQPPQPVISAHPIHSLDNPHHHFHSSSLASPARSHLYHPGSPWPIGTSMSLSDRANSTESVRNTPSTDTMPASSSQTCCTDHQDPEGATSSSYLASSQEEDSGQSLPTAHVRPSHPLKSFAVPAIPPPGPPTYDPALPSTPLLSQQALNHHIHSVKTASIGTLGRSRPPMPVVVPSAPEVQETTRMLEDSESSYEPDELTKEMAHLEGLMKDLNAITTA

Reference: publication PMC6527380
